Source: the ROBIN nucleic acid binder screens (doi:10.1002/anie.202211358).

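The test is a small-molecule microarray: each compound is printed twice on a reactive slide, and binding shows as fluorescence of the labelled oligonucleotide after washing. The data file lists only calls. An earlier report of the laboratory on the PreQ1, TPP and SAM-II riboswitches (doi:10.1038/s41467-019-09493-3) used 1 µM RNA for 2 h and required a mean Z-score above 3 (spot signal-to-noise against the whole library), a score well above that on a control array, and duplicate spots agreeing (coefficient of variation under 100); it then also set aside compounds that hit other targets, which this list keeps. The cut-offs behind this list may differ. The calls come from the array alone, and fixing a compound to the slide can hide its binding.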 A compound is marked active if it was called a hit and inactive if it was screened but was not. The compounds are a random part of those screened. A target missing from an entry has no call listed here.

Targets, with sequences 5′ to 3′:
SAM-II: SAM-II riboswitch RNA pseudoknot, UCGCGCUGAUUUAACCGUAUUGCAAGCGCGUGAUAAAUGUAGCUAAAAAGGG. About 200 hits among about 21,000 compounds.
TPP: TPP riboswitch RNA three-way junction, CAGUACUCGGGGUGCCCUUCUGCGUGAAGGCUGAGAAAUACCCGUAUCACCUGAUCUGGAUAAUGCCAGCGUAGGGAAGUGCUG. About 160 hits among about 24,000 compounds.
PreQ1: PreQ1 riboswitch RNA pseudoknot, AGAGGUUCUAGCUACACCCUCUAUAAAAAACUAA. From B. subtilis. About 170 hits among about 24,000 compounds.

With CO[C@H]1C(=O)[C@]2(C)[C@@H](OC)C[C@H]3OC[C@@]3(OC(C)=O)[C@H]2[C@H](OC(=O)c2ccccc2)[C@]2(O)C[C@H](OC(=O)[C@H](O)[C@@H](NC(=O)OC(C)(C)C)c3ccccc3)C(C)=C1C2(C)C the screen gave SAM-II: inactive; TPP: inactive; PreQ1: inactive.
With CCn1ccc(C(=O)N2CC[C@@H]3[C@@H](CCC(=O)N3CCN)C2)cc1=O the screen gave SAM-II: inactive; TPP: inactive; PreQ1: inactive.
With COc1ccc(-c2ccc(C(O)CN3CCOCC3)cc2)c2cccnc12 (stereo not drawn) the screen gave SAM-II: inactive; TPP: inactive; PreQ1: inactive.
With c1nc(NC2CCCC2)c2c3c(sc2n1)CCCC3 the screen gave TPP: inactive; PreQ1: inactive.
With Cc1ccc(Nc2c(-c3ccc(O)cc3)nc3ncccn23)c(C)c1 the screen gave SAM-II: inactive; TPP: inactive; PreQ1: inactive.
With N#C/C(=C\c1cccnc1)c1ccc(Br)cc1 the screen gave SAM-II: inactive; TPP: inactive; PreQ1: inactive.
With CCc1ccc(CNc2nc3nc(C)c(Cl)c(C)n3n2)cc1 the screen gave TPP: inactive; PreQ1: inactive.
With CC1CC2(CC(C)(c3csc(N)n3)OC2=O)C(=O)O1 (stereo not drawn) the screen gave SAM-II: inactive; TPP: inactive; PreQ1: inactive.
With C[C@H]([C@H](O)CCC(C)(C)O)[C@H]1CC[C@@]2(O)C3=CC(=O)[C@@H]4C[C@@H](O)[C@@H](O)C[C@]4(C)[C@@H]3CC[C@]12C the screen gave SAM-II: inactive; TPP: inactive; PreQ1: inactive.
With CCOC(=O)c1cccc(NC2=NS(=O)(=O)c3ccccc32)c1 the screen gave TPP: inactive; PreQ1: inactive.
With COC(=O)c1ccc2nc(C)cc(Nc3cc(Cl)ccc3OC)c2c1 the screen gave SAM-II: inactive; TPP: inactive; PreQ1: inactive.
With COCCn1c(N)cc(=O)[nH]c1=O the screen gave SAM-II: inactive; TPP: inactive; PreQ1: inactive.
With CCOC(=O)c1ccc(Nc2sc(C(=O)c3cccc([N+](=O)[O-])c3)c(N)c2C#N)cc1 the screen gave SAM-II: inactive; TPP: inactive; PreQ1: inactive.
With CCOc1cc(CNCCc2cccc(Cl)c2)ccc1OC the screen gave SAM-II: inactive; TPP: inactive; PreQ1: inactive.
With CCCn1cnc2cc(NCc3ccccn3)ccc21 the screen gave SAM-II: inactive; TPP: inactive; PreQ1: inactive.
With CCOC(=O)c1cnc2c(-c3ccccc3)c(C)nn2c1N the screen gave SAM-II: inactive; TPP: inactive; PreQ1: inactive.
With Nc1nc(CCc2nc(COc3ccccc3)nn2CC(=O)O)cs1 the screen gave SAM-II: inactive; TPP: inactive; PreQ1: inactive.
With CC(C)c1ccc(C2C(C#N)=C(N)OC3=C2C(=O)CCC3)cc1 (stereo not drawn) the screen gave SAM-II: inactive; TPP: inactive; PreQ1: inactive.
With O=C(c1ccc(-c2cc[nH]n2)cc1)N1CCOCC(O)C1 (stereo not drawn) the screen gave SAM-II: inactive; TPP: inactive; PreQ1: inactive.
With CC(C)N1CCN(c2ccc(-c3cccc(CO)c3)cc2)CC1 the screen gave SAM-II: inactive; TPP: inactive; PreQ1: inactive.
With O=C(CN1CCOC1=O)N1CC[C@@H](c2ccc3ccccc3c2)[C@H](O)C1 the screen gave SAM-II: inactive; TPP: inactive; PreQ1: inactive.
With CCOc1ccc(Oc2nc(NCC(C)C)nc(N3CCOCC3)n2)nn1 the screen gave SAM-II: inactive; TPP: inactive; PreQ1: inactive.
With Cn1c(=O)n(C)c2cc(CNCc3cccnc3)ccc21 the screen gave TPP: inactive; PreQ1: inactive.
With Cc1ccc(F)c(CN2CCC3(CCNCC3)C2)c1Cl the screen gave SAM-II: inactive; TPP: inactive; PreQ1: inactive.
With COc1ccc(CNc2nc3nc(C)c(Cl)c(C)n3n2)cc1 the screen gave TPP: inactive; PreQ1: inactive.
With COc1ccccc1-c1ccc(N2CCC(Cc3ccc(CO)cc3)C2)nn1 (stereo not drawn) the screen gave SAM-II: inactive; TPP: inactive; PreQ1: inactive.
With Cn1c(=O)c2c(nc(Cc3ccc(N)cc3)n2C)n(C)c1=O the screen gave SAM-II: inactive; TPP: inactive; PreQ1: inactive.
With CCCCOc1ccc(C(=O)Nc2ccc(F)cc2F)cc1 the screen gave SAM-II: inactive; TPP: inactive; PreQ1: inactive.
With CCCCc1nc(C)cc(NCCNC(=O)c2cn3c(n2)CNCC3)n1 the screen gave SAM-II: inactive; TPP: inactive; PreQ1: inactive.
With c1ccc(N2CCN(C3CCCNC3)CC2)cc1 (stereo not drawn) the screen gave SAM-II: inactive; TPP: inactive; PreQ1: inactive.
With CC(C)c1ccc(-c2c(NC3CCCCCC3)c(=O)c2=O)cc1 the screen gave TPP: inactive; PreQ1: inactive.
With COc1cc2c(N3CCN(C(=O)Nc4ccc(OC(C)C)cc4)CC3)ncnc2cc1OCCCN1CCCCC1 the screen gave SAM-II: inactive; TPP: inactive; PreQ1: inactive.
With C=CC(=O)N1CCc2ccc(-n3c(=O)ccc4cnc5ccc(-c6cnn(C)c6)cc5c43)cc21 the screen gave SAM-II: inactive; TPP: inactive; PreQ1: inactive.
With Cc1ccc(NC2c3ccccc3C(=O)N2c2cc(C)ccn2)cc1 (stereo not drawn) the screen gave SAM-II: inactive; TPP: inactive; PreQ1: inactive.
With Cc1cc(C(c2cc(C)c(N)c(C)c2)c2ccco2)cc(C)c1N the screen gave SAM-II: inactive; TPP: inactive; PreQ1: inactive.

Some entries from above, unchanged:

{"smiles": "COc1cc2c(N3CCN(C(=O)Nc4ccc(OC(C)C)cc4)CC3)ncnc2cc1OCCCN1CCCCC1", "SAM-II": "inactive", "TPP": "inactive", "PreQ1": "inactive"}
{"smiles": "COc1ccc(-c2ccc(C(O)CN3CCOCC3)cc2)c2cccnc12", "stereo": "stereo not drawn", "SAM-II": "inactive", "TPP": "inactive", "PreQ1": "inactive"}
{"smiles": "COc1ccc(CNc2nc3nc(C)c(Cl)c(C)n3n2)cc1", "TPP": "inactive", "PreQ1": "inactive"}